In PubChem BioAssay AID720591 (Broad Institute, 2013):
In all, about 1,200 compounds went through this assay and about 60 (5%) were called active. This list was built around the results that the source calls inconclusive (neither active nor inactive); the mix of calls is not that of the screen.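 The calls were made as follows: active = Decreasing signal and fitted IC50 at most twice the top valid tested dose; inconclusive = Bad fit or a level curve showing 30 to 70% inhibition; inactive = the rest.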

The chains behind the UniProt entries cited, without tags or fusion partners. Where a name states a change or a piece, a line headed by the entry shows the natural chain unless it says otherwise.
UniProt Q9NXA8: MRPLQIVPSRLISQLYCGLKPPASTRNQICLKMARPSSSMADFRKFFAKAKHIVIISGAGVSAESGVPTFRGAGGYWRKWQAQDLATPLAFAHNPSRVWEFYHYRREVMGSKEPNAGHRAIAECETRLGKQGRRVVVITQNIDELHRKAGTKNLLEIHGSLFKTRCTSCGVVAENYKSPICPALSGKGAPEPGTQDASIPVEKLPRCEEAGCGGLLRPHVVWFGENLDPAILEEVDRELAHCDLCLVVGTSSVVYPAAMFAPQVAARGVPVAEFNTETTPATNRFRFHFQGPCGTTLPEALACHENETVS

These compounds were tested against NAD-dependent protein deacylase sirtuin-5, mitochondrial (Homo sapiens) (UniProt Q9NXA8) (assay: SIRT5 desuccinylase inhibitors, dose response, biochemical, fluorescence imaging, cherry-pick, set 5 (AID 720591;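 also: 0% = median of neutral control wells and -100% = median of positive control wells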)). Conditions: Purified SirT5, succinyl-peptide AMC, trypsin-coupled fluorescence; at 15 µM (top of the series).

Row | Structure (SMILES) | activity change, negative = inhibition
1 | CCCCCCCCN1C(=O)[C@H](CC(=O)NCCC(C)C)C[C@@]2(C(=O)OCC)CCCC=C12 | inconclusive: -34.5%
2 | CCOC(=O)c1c(-c2ccc(C)cc2)csc1NC(=O)CCN1CC(C)OC(C)C1 (stereo not drawn) | inactive: 10.9%
3 | Cn1c(NCCCO)nc2c1c(=O)n(Cc1ccccc1F)c(=O)n2C | inactive: 5.2%
4 | COc1ccc(CCNS(=O)(=O)c2cc3c4c(c2)CC(=O)N4CCC3)cc1 | inactive: 12.3%
5 | CCc1c(C)nc2c(C)cccc2c1SCCC#N | inconclusive: -36.2%
6 | COc1ccc(Cl)cc1NC(=O)CCN1CCN(Cc2ccccc2)CC1 | inconclusive: -33.8%
7 | CC(=O)N1[C@H](C)C=C[C@]1(Cc1ccccc1)C(=O)NCc1cc(F)cc(C(F)(F)F)c1 | inconclusive: -33.4%
8 | O=C(O)Cc1c[nH]c2cccc(O)c12 | inconclusive: -45.2%
9 | CCC(C)(C)NC(=O)C(c1ccco1)N(C(=O)c1csnn1)c1cccc(F)c1 (stereo not drawn) | inconclusive: -33.5%
10 | COc1ccc(Nc2cc(C)nc3ccccc23)cc1 | inconclusive: -40.9%
11 | COc1ccc(S(=O)(=O)N2CCC(NC(=O)C(Cc3cccc(OC)c3OC)NC(C)=O)CC2)cc1 (stereo not drawn) | inconclusive: -30.3%
12 | C#CC1(NC(=O)NCCCC)CCCCC1 | inactive: 16.7%
13 | CC1(C)Cc2nc3sc(C(N)=O)c(N)c3cc2CO1 | inconclusive: -35.3%
14 | Cc1cccc(NC(=O)C2CCN(C(=O)c3ccco3)CC2)c1C | inactive: -16.4%
15 | O=C(Cc1cccs1)N1CCN(S(=O)(=O)c2ccc(Cl)c(C(F)(F)F)c2)CC1 | inactive: -18.7%
16 | C=C(C)C(=O)N1CC2(CC(c3cccc(NC(=O)CCCCC)c3)=NO2)C[C@H]1C(N)=O (stereo partly drawn) | inconclusive: -28.9%
17 | COc1ccc(-c2cccc(C3CC=CC4C3C(=O)N(Cc3ccccc3)C4c3ccc(C(F)(F)F)cc3)c2)cc1 (stereo not drawn) | inactive: 23.6%
18 | CC1=NCCN1CCNC(=O)Nc1cc(C)cc(C)c1 | inconclusive: -33.9%
19 | Cc1cc(SCC(=O)OCC(=O)N(C)C2CCS(=O)(=O)C2)c(C)cc1Br (stereo not drawn) | inconclusive: -42.8%
20 | CCNC(=O)CCSc1nnc(-c2ccncc2)o1 | inconclusive: -31.2%
21 | Cc1ccc(S(=O)(=O)NCC(=O)OCC(=O)NCc2ccc(F)cc2)cc1 | inactive: -17%
22 | CC(NS(=O)(=O)c1ccc2[nH]c(=O)c(=O)[nH]c2c1)C(=O)O (stereo not drawn) | inconclusive: -34%
23 | N#Cc1ccccc1COC(=O)CCCC1=NS(=O)(=O)c2ccccc2N1 | inconclusive: -43.2%

A different layout for part of the listing above:
Row	Structure (SMILES)	activity change, negative = inhibition
10	COc1ccc(Nc2cc(C)nc3ccccc23)cc1	inconclusive: -40.9%
14	Cc1cccc(NC(=O)C2CCN(C(=O)c3ccco3)CC2)c1C	inactive: -16.4%
